For some of these results: The name of at least one read-out is uncertain. Some of these results come from one statement about several compounds together.
Key:
Assay type in all cases: in vivo
[1] = tested on: Eggs of Tetranychus Cinnabarinus; experiment: Activity assay of eggs of Tetranychus cinnabarinus (spray method, ovicidal)
Description: According to the solubility of the test compound, the crude drug was dissolved in N N-dimethylformamide, and then prepared into a test solution of the desired concentration with 1‰ Tween 80 aqueous solution. The content of N. N-dimethylformamide in the solution should not exceed 10%.
Spray method. The broad bean leaves with petioles were cut and inserted into a bottle with water. A certain number of female mites were placed, 24h later, adult mites were removed, and spray treatment was performed in 24 h. The experiment was repeated three times, and a blank control was set, and placed to an observation room (26±2° C., humidity 70%˜80%, 16h light per day) for culture. When the blank control group was incubated, the results were investigated. The non-incubated ones were used as death for investigation.

[2] = tested on: adult Tetranychus cinnabarinus; experiment: Activity assay of adult Tetranychus cinnabarinus (whole-plant spray on bean seedlings); settings: 48 h
Description: According to the solubility of the test compound, the crude drug was dissolved in N, N-dimethlfornamide, and then prepared into a test solution of the desired concentration with 1‰ Tween 80 aqueous solution. The content of N,N-dimethylformamide in the solution should not exceed 10%.
Two euphylla bean seedlings were taken, after inoculated with adult Tetranychus cinnabarinus and the base number was investigated, whole plants were sprayed with a hand-held sprayer. The experiment was repeated three times for each treatment, after treatment, placed in a standard observation room after treatment, to investigate the survival number of mites in 48 hand calculate the death rate.

[3] = tested on: Tetranychus cinnabarinus Nymphs; experiment: Activity assay of Tetranychus cinnabarinus nymphs (spray on broad bean leaves); settings: 48 h
Description: According to the solubility of the test compound, the crude drug was dissolved in N, N-dimethylformamide, and then prepared into a test solution of the desired concentration with 1‰ Tween 80 aqueous solution. The content of N,N-dimethylformamide in the solution should not exceed 10%.
The broad bean leaves with petioles were cut and inserted into a small bottle with water. A certain number of brightly colored, active female adult mites were placed, 24h later, adult mites were removed, and leaves with insufficient eggs were removed. When eggs were hatched and grew into nymphs, spray treatment was performed. The experiment was repeated three times, and a blank control was set, and placed to an observation room (26±2° C., humidity 70%˜80%, 16h light per day) for culture. 48 h later, the results were investigated. The nymphs were gently touched during investigation, and if no response, they were regarded as deaths.

[4] = concentration 5 mg/L, non-incubated eggs counted as dead

Structure (SMILES) | ovicidal activity [1, 4] [%] | adult mite-killing activity ([2]; concentration 2.5 mg/L) [%] | nymph-killing activity ([3]; concentration 2.5 mg/L) [%] | ovicidal activity ([1]; concentration 2 mg/L) [%] | adult mite-killing activity ([2]; concentration 1.25 mg/L) [%] | nymph-killing activity ([3]; concentration 2 mg/L) [%] | Death rate (%) ([3]; nymphs, concentration 0.5 mg/L, parallel determination)
CCCOC(=O)OCO/C(=C(/C#N)c1ccc(C(C)(C)C)cc1)c1c(Cl)c(C)nn1CC [Compound 741] | ≥ 90 | ≥ 90 | ≥ 95 | – | – | – | –
CCOC(=O)OC(C)O/C(=C(/C#N)c1ccc(C(C)(C)C)cc1)c1c(Cl)c(C)nn1C (racemic) [Compound 676] | ≥ 90 | ≥ 90 | ≥ 95 | – | – | – | –
CCOC(=O)OC(C)O/C(=C(/C#N)c1ccc(C(C)(C)C)cc1)c1c(C)c(C)nn1CC (stereo not shown) [Compound 964] | ≥ 90 | ≥ 90 | ≥ 95 | ≥ 90 | ≥ 90 | ≥ 90 | –
CCOC(=O)COC(=O)OCO/C(=C(/C#N)c1ccc(C(C)(C)C)cc1)c1c(C)c(C)nn1CC [Compound 958] | ≥ 90 | ≥ 90 | ≥ 95 | – | – | – | –
CCC(OC(=O)CSC)O/C(=C(/C#N)c1ccc(C(C)(C)C)cc1)c1cc(C)nn1C (racemic) [Compound 60] | ≥ 90 | ≥ 90 | ≥ 95 | – | – | – | –
COC(=O)COC(=O)OCO/C(=C(/C#N)c1ccc(C(C)(C)C)cc1)c1c(Cl)c(C)nn1C [Compound 669] | ≥ 90 | ≥ 90 | ≥ 95 | – | – | – | –
CCC(C)(C)C(=O)OCO/C(=C(\C#N)c1ccc(C(C)(C)C)cc1)c1c(Cl)c(C)nn1C [Compound 1158] | ≥ 90 | ≥ 90 | ≥ 95 | – | – | – | –
C=CC(=O)OC(CC)O/C(=C(/C#N)c1ccc(C(C)(C)C)cc1)c1cc(C)nn1C (racemic) [Compound 67] | ≥ 90 | ≥ 90 | ≥ 95 | – | – | – | –
CCCOC(=O)OCO/C(=C(/C#N)c1ccc(C(C)(C)C)cc1)c1cc(C)nn1C [Compound 453] | ≥ 90 | ≥ 90 | ≥ 95 | – | – | – | –
CCn1nc(C)c(Cl)c1/C(OC(C)OC(=O)OCCC(C)C)=C(\C#N)c1ccc(C(C)(C)C)cc1 (racemic) [Compound 778] | ≥ 90 | ≥ 90 | ≥ 95 | – | – | – | –
CCSC(=O)OCO/C(=C(/C#N)c1ccc(C(C)(C)C)cc1)c1c(C)c(C)nn1CC [Compound 960] | ≥ 90 | ≥ 90 | ≥ 95 | – | – | – | –
CCn1nc(C)c(Cl)c1/C(OC(C)OC(=O)OCC(C)C)=C(\C#N)c1ccc(C(C)(C)C)cc1 (racemic) [Compound 777] | ≥ 90 | ≥ 90 | ≥ 95 | – | – | – | –
C=CCOC(=O)OC(C)O/C(=C(/C#N)c1ccc(C(C)(C)C)cc1)c1c(C)c(C)nn1C (racemic) [Compound 890] | ≥ 90 | ≥ 90 | ≥ 95 | – | – | – | –
CCSC(=O)OC(C)O/C(=C(/C#N)c1ccc(C(C)(C)C)cc1)c1c(C)c(C)nn1CC (stereo not shown) [Compound 992] | ≥ 90 | ≥ 90 | ≥ 95 | – | – | – | –
CCOCC(=O)OC(C)O/C(=C(/C#N)c1ccc(C(C)(C)C)cc1)c1cc(C)nn1C (racemic) [Compound 43] | ≥ 90 | ≥ 90 | ≥ 95 | – | – | – | –
CCOC(=O)OC(C)O/C(=C(/C#N)c1ccc(C(C)(C)C)cc1)c1cc(C)nn1C (racemic) [Compound 484] | ≥ 90 | ≥ 90 | – | – | – | – | –
CCn1nc(C)cc1/C(OC(C)OC(=O)COC)=C(\C#N)c1ccc(C(C)(C)C)cc1 (racemic) [Compound 257] | ≥ 90 | ≥ 90 | – | – | – | – | –
CCCOC(=O)OC(C)O/C(=C(/C#N)c1ccc(C(C)(C)C)cc1)c1cc(C)nn1C (racemic) [Compound 485] | ≥ 90 | ≥ 90 | – | – | – | – | –
CCn1nc(C)c(C)c1/C(OCOC(=O)OCC(C)C)=C(\C#N)c1ccc(C(C)(C)C)cc1 [Compound 937] | – | – | – | – | – | – | 93
